In article PMC7997968:
Results are given in words; binding and its absence hold for the method and conditions named. Binding seen in cells or lysates may run through a third protein. Some results given as binding are weak or reduced against the parent protein; the word gives no strength. For part of these data: Sequences can lack the tags named with a protein.

Chains of the proteins cited; added tags and fusions are not shown.
UniProt P03372: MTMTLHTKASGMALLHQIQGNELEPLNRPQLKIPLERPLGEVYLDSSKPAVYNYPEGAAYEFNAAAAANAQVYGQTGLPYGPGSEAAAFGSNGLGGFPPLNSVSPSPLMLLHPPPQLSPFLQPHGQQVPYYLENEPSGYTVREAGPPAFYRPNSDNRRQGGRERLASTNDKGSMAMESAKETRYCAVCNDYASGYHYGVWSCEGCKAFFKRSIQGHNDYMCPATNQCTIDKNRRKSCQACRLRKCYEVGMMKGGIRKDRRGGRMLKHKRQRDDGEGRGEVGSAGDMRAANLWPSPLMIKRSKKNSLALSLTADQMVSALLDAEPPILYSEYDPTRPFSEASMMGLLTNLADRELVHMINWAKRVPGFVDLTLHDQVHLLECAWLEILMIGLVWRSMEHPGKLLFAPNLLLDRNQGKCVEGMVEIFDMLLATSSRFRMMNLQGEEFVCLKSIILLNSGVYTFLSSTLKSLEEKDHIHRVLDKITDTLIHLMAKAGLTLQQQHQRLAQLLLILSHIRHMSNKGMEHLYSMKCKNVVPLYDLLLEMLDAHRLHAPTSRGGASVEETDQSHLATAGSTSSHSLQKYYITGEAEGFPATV

Legend:
[1] = molecular target: T1, Ubiquitin carboxyl-terminal hydrolase 15 (USP15), endogenous (human (endogenous in breast cancer cells)) (UniProt Q9Y4E8); experiment: co-IP; proteins extracted from breast cancer cells; immunoprecipitated with anti-ERα or anti-USP15, immunoblot for USP15 or ERα; endogenous proteins
T1 sequence: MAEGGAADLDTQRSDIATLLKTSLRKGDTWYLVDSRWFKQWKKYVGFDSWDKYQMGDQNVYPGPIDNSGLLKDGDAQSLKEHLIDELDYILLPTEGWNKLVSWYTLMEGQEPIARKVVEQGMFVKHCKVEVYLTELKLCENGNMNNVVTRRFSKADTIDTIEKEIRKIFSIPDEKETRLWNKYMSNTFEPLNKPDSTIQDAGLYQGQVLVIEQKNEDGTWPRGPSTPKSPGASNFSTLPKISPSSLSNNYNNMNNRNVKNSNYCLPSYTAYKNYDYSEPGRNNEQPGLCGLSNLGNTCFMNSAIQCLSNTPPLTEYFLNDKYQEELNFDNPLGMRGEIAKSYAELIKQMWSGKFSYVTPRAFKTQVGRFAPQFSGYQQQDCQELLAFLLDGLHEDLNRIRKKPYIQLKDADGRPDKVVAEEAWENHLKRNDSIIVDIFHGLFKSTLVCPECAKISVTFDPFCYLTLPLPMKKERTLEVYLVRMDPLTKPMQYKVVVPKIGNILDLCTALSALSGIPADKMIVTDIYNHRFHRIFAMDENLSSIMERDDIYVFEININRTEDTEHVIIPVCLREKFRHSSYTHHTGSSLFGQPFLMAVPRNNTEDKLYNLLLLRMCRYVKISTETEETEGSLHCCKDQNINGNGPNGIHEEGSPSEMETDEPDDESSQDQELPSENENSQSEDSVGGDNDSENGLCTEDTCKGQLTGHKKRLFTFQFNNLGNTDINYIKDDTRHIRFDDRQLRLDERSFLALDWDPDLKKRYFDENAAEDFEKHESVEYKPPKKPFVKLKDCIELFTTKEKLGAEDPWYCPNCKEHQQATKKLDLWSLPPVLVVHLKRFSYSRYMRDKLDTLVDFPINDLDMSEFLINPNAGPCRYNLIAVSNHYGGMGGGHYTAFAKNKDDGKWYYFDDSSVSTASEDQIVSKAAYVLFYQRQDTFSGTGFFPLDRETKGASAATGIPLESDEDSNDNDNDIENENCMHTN

[2] = molecular target: estrogen receptor α (ERα), endogenous (human (endogenous in breast cancer cells)) (UniProt P03372); experiment: as above
FLAG-tagged ERα = FLAG-tagged ERα (UniProt P03372); experiment: co-IP; HEK293T cells transfected with FLAG-tagged ERα and MYC-tagged USP15; co-IP and western blot for MYC and FLAG

“estrogen receptor α (ERα), endogenous (from UniProt P03372 1-595)” was tested, and the binding [1] was “binds”.

B1: Ubiquitin carboxyl-terminal hydrolase 15 (USP15), endogenous (enzyme, UniProt Q9Y4E8 1-981)
chain: T1 sequence
B1 was tested, and the binding [2] was “binds”.

B2: MYC-tagged USP15 (enzyme, UniProt Q9Y4E8-2 1-952)
chain: MAEGGAADLDTQRSDIATLLKTSLRKGDTWYLVDSRWFKQWKKYVGFDSWDKYQMGDQNVYPGPIDNSGLLKDGDAQSLKEHLIDELDYILLPTEGWNKLVSWYTLMEGQEPIARKVVEQGMFVKHCKVEVYLTELKLCENGNMNNVVTRRFSKADTIDTIEKEIRKIFSIPDEKETRLWNKYMSNTFEPLNKPDSTIQDAGLYQGQVLVIEQKNEDGTWPRGPSTPNVKNSNYCLPSYTAYKNYDYSEPGRNNEQPGLCGLSNLGNTCFMNSAIQCLSNTPPLTEYFLNDKYQEELNFDNPLGMRGEIAKSYAELIKQMWSGKFSYVTPRAFKTQVGRFAPQFSGYQQQDCQELLAFLLDGLHEDLNRIRKKPYIQLKDADGRPDKVVAEEAWENHLKRNDSIIVDIFHGLFKSTLVCPECAKISVTFDPFCYLTLPLPMKKERTLEVYLVRMDPLTKPMQYKVVVPKIGNILDLCTALSALSGIPADKMIVTDIYNHRFHRIFAMDENLSSIMERDDIYVFEININRTEDTEHVIIPVCLREKFRHSSYTHHTGSSLFGQPFLMAVPRNNTEDKLYNLLLLRMCRYVKISTETEETEGSLHCCKDQNINGNGPNGIHEEGSPSEMETDEPDDESSQDQELPSENENSQSEDSVGGDNDSENGLCTEDTCKGQLTGHKKRLFTFQFNNLGNTDINYIKDDTRHIRFDDRQLRLDERSFLALDWDPDLKKRYFDENAAEDFEKHESVEYKPPKKPFVKLKDCIELFTTKEKLGAEDPWYCPNCKEHQQATKKLDLWSLPPVLVVHLKRFSYSRYMRDKLDTLVDFPINDLDMSEFLINPNAGPCRYNLIAVSNHYGGMGGGHYTAFAKNKDDGKWYYFDDSSVSTASEDQIVSKAAYVLFYQRQDTFSGTGFFPLDRETKGASAATGIPLESDEDSNDNDNDIENENCMHTN
B2 was tested, and the binding (FLAG-tagged ERα) was “binds”.
